A short description of the experiment: IkB Signaling. The following applies: ABC-DLBCL IkBa-CBG/CBR dual luciferase ratio (green luciferase fused to IkBa over red control in OCI-Ly3 lymphoma cells), 4 h. Put shortly:
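In this assay, an IκBα–CBG68 fusion accumulates when IKK-driven degradation is blocked; native CBR normalizes for cell number. OCI-Ly3 cells were treated 4 h with compound and doxycycline, then green and red light read after Chroma-Glo addition.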

The mark [1] stands for this setting: measured here: control luc red channel unless noted.

The other results are listed elsewhere or left out. Further columns of the screen follow, without active or inactive calls. The list favours compounds with an active or inconclusive main result. Potencies come from curve fits of mixed quality, noted in brackets.

What is called AC50 is the concentration giving half of the maximal activity seen.

In the case of `COc1cc(/C=C/c2nc(C#N)c(NC3CCCCC3)o2)cc(OC)c1OC`, under setting [1], the concentration at half-maximal activity (AC50) was 20 µM [falling, partial curve].

Take `O=C(/C=C/c1cn(CC(O)CN2CCCCCC2)c2ccccc12)c1ccccc1` (centres undefined): the AC50 under setting [1] is 10 µM [falling, partial curve].

On to `Cc1ccc(CNc2nc3c(S(=O)(=O)c4ccccc4)nnn3c3ccsc23)cc1`, for which the AC50 under setting [1] is 0.631 µM [rising, full curve].

In the case of `Cc1ccccc1C(=O)Nc1ccc(Br)cn1`, the AC50 under setting [1] was 7.94 µM [falling, partial curve].

Consider `Cc1ccc(C)c(NC(=O)CSc2cn(CC(=O)N3CCCC3)c3ccccc23)c1`, for which the AC50 under setting [1] was 25.1 µM [falling, single point].

For `CCOc1ccccc1C1C(C(=O)Nc2ccccc2OC)=C(C)Nc2nc3ccccc3n21` (centres undefined), the AC50 under setting [1] was 12.6 µM [falling, partial curve].

As to `Cc1ccc2nc(NC(=O)c3cc(=O)c4cc(C)c(C)cc4o3)sc2c1`, the AC50 under setting [1] is 3.98 µM [rising, partial curve].

Consider `CCc1nnc2c3ccccc3nc(N3CCN(c4ccc(C)cc4C)CC3)n12`, for which the AC50 under setting [1] was 20 µM [falling, partial curve].

On to `O=C(NCCc1csc(-c2cccnc2)n1)c1cccc(C(F)(F)F)c1`, for which the AC50 under setting [1] was 39.8 µM [falling, single point].

`COc1ccccc1CNC(=O)c1ccc(C)c(-n2cnc3cccnc32)c1`: the AC50 under setting [1] is 3.16 µM [falling, partial curve].

Regarding `Cc1occc1-c1nnc(SCC(=O)c2cc3ccccc3oc2=O)o1`, under setting [1], the AC50 is 2 µM [falling, full curve].

`CN1CCN(C(c2ccccc2)c2sc3nc(-c4ccco4)nn3c2O)CC1` (centres undefined): the AC50 under setting [1] was 15.8 µM [rising, partial curve].

For `O=C(O)c1cc(N=Nc2ccc([N+](=O)[O-])cc2)ccc1O`, the AC50 under setting [1] is 10 µM [falling, partial curve].

For `COc1ccc(-c2cc(C(=O)NCc3ccc(Cl)cc3)no2)cc1OC`, the AC50 under setting [1] was 5.01 µM [falling, partial curve].

Regarding `Cc1cc(Br)ccc1NC(=O)CCS(=O)(=O)c1cccc2nonc12`, the AC50 under setting [1] was 25.1 µM [rising, partial curve].

Regarding `COc1ccc(Cl)cc1NS(=O)(=O)c1cc(-c2cc(C)no2)ccc1C`, the AC50 is, setting by setting: (measured here: IkB-luc green channel) 25.1 µM [rising, single point]; (measured here: control luc red channel) 3.98 µM [rising, full curve, poor fit].

Turning to `Cc1cc(C)c(Cn2c(C)c(CNCCCc3ccccc3)c(C(=O)O)c2C)c(C)c1`, under setting [1], the AC50 is 31.6 µM [falling, single point].

As to `Cc1ccc(C)c(N2CCN(C(=O)CN3C(=O)COc4ccc(S(=O)(=O)N5CCCCCC5)cc43)CC2)c1`, the AC50 under setting [1] is 7.94 µM [falling, partial curve].

On to `COc1ccc(-c2cc(C(=O)Nc3c(C(=O)c4ccc(Cl)cc4)oc4ccccc34)no2)cc1`, for which the AC50 under setting [1] was 6.31 µM [rising, single point].

Consider `COc1ccc(-c2nnc(-c3cccs3)o2)cc1OC`, for which the AC50 under setting [1] is 20 µM [falling, single point].

As for `CCC1CN(C(=O)N2CCC(C(=O)NCc3ccc(C)o3)CC2)c2cc(C)ccc2O1` (centres undefined), under setting [1], the AC50 is 0.398 µM [falling, full curve].

For the compound `CCOC(=O)c1ccc(NC(=O)Nc2ccc3c(c2)OCCO3)cc1`, the AC50 under setting [1] was 12.6 µM [falling, partial curve].

For the compound `CC[C@H](NC(=O)c1c(C)c(-c2ccccc2)nc2ccccc12)c1ccccc1`, the half-maximal activity concentration (AC50) under setting [1] was 15.8 µM [falling, partial curve].

Consider `COc1ccc(C(=O)NCCc2sc(-c3cccc(F)c3)nc2C)cc1`, for which the AC50 under setting [1] was 20 µM [falling, partial curve].

Regarding `Cc1nc2ccn(Cc3cccnc3)c(=O)c2cc1C(=O)Nc1ccc(OC(F)(F)F)cc1`, under setting [1], the AC50 is 0.398 µM [falling, full curve, poor fit].

Regarding `COCC(C)NC(=O)c1cc(-c2ccccc2OC)on1` (centres undefined), the AC50 under setting [1] is 0.0631 µM [falling, full curve].

Consider `CC1CCc2nc(NC(=O)COc3ccc(C(C)(C)C)cc3)sc2C1` (centres undefined), for which the concentration at half-maximal activity (AC50) under setting [1] was 3.16 µM [falling, partial curve].

On to `COc1ccc(OC)c(C2CC(=O)c3c([nH]c(C(=O)OCC4CCCCC4)c3C)C2)c1` (centres undefined), for which the AC50 under setting [1] was 1.58 µM [rising, full curve, poor fit].

Regarding `CC(=O)c1cccc(NC(=O)CCS(=O)(=O)c2cc(Br)cc3c2N(C(=O)C2CC2)CC3)c1`, the AC50 under setting [1] was 39.8 µM [falling, single point].

In the case of `CC(C)(C)NC(=O)CN(C(=O)CS(=O)CC(=O)Nc1ccc(F)cc1)c1ccc(Cl)cc1` (centres undefined), the AC50 under setting [1] was 15.8 µM [falling, partial curve].

Turning to `N#Cc1ccccc1NC(=O)C(=O)NCC(c1cccnc1)N1CCc2ccccc2C1` (centres undefined), the AC50 under setting [1] was 6.31 µM [rising, single point].

Take `COc1ccc(OC)c(CCNC(=O)C(C)n2nc(C)c3c(C)n(-c4ccc(C)cc4)nc3c2=O)c1` (centres undefined): the AC50 under setting [1] is 6.31 µM [falling, partial curve].

Take `CCOc1ccccc1NC(=O)C1CCCN(S(=O)(=O)c2ccc3c(c2)CCCN3C(C)=O)C1` (centres undefined): under setting [1], the AC50 is 39.8 µM [falling, single point].

For the compound `CCc1ccc(S(=O)(=O)c2nnn3c2nc(Nc2cccc(C)c2C)c2sccc23)cc1`, under setting [1], the AC50 was 15.8 µM [falling, partial curve].

As to `COc1cc(-c2nnc(SCC(=O)N3CCCc4ccccc43)o2)cc(OC)c1OC`, the AC50 under setting [1] was 10 µM [falling, partial curve, poor fit].

Turning to `CCN(C(=O)Cn1nc(Cc2cccnc2)c2ccccc2c1=O)c1cc(C)ccc1C`, the AC50 under setting [1] is 12.6 µM [falling, single point].

As to `CSc1ccccc1NC(=O)CCS(=O)(=O)c1nc(-c2cccs2)cc(C(F)(F)F)n1`, the AC50 under setting [1] was 3.98 µM [falling, full curve].

Regarding `CCn1c(C(=O)Nc2cc(C)cc(C)c2)cc2sc(Cl)cc21`, the AC50 under setting [1] is 0.01 µM [falling, full curve, poor fit].

For `CCN(CC)CCOC(=O)c1ccc(NC(=O)CCn2c(=O)oc3ccccc32)cc1`, the AC50 under setting [1] was 5.01 µM [rising, full curve, poor fit].

In the case of `CCOC(=O)c1cccc(NC(=O)C2CCN(c3nnc(C)c4c(C)n(-c5ccccc5)nc34)CC2)c1`, the AC50 under setting [1] is 20 µM [falling, partial curve].

As to `COC(=O)c1sc(NC(=O)COc2ccccc2)nc1C`, the AC50 under setting [1] was 2 µM [falling, partial curve].

With `COc1ccc(NCc2cccn2-c2nnc(N3CCOCC3)s2)c(OC)c1`, the AC50 under setting [1] was 10 µM [falling, partial curve, poor fit].

As to `O=C(NNc1ncnc2c1cnn2-c1ccccc1)c1ccccc1`, the AC50 under setting [1] is 0.0316 µM [falling, full curve, poor fit].

As to `COc1ccc(C(=O)Nc2ccc3nc(N4CCCCC4)cc(C)c3c2)c(OC)c1`, under setting [1], the AC50 was 12.6 µM [falling, partial curve].

On to `Cc1cn2c(=O)cc(COc3cccc(NC(=O)c4cccc(F)c4)c3)nc2s1`, for which the half-maximal activity concentration (AC50) under setting [1] is 2 µM [falling, full curve].

On to `CCCc1oc2ccc(NS(=O)(=O)c3ccc(OC)cc3)cc2c1C(=O)OCC`, for which the AC50 under setting [1] is 10 µM [falling, partial curve].

`CCOC(=O)c1c(NC(C)=O)c2c3c(sc2n1Cc1cccc(Cl)c1)CCCC3`: under setting [1], the half-maximal activity concentration (AC50) was 3.98 µM [falling, partial curve].

For the compound `CCCN(C(=O)CCn1cnc2onc(-c3ccc(F)cc3)c2c1=O)c1ccccc1C`, the AC50 under setting [1] was 39.8 µM [falling, single point].

Take `Cc1ccc(Cl)cc1N1CCN(C(=O)Cn2nc(C)n3c(cc4sccc43)c2=O)CC1`: under setting [1], the AC50 is 20 µM [falling, partial curve].

Turning to `Cc1cc(C)cc(C(=O)Nc2c3c(nn2-c2ccccc2C)CS(=O)(=O)C3)c1`, under setting [1], the AC50 is 39.8 µM [falling, single point].

`CC1(CCc2ccccc2)NC(=O)N(Cc2nnc(-c3ccccc3Br)o2)C1=O` (centres undefined): under setting [1], the AC50 is 39.8 µM [falling, single point].

Take `O=C(Cn1nc2c(cc1=O)CCCC2)NCc1ccccc1Cl`: the AC50 under setting [1] is 1 µM [rising, full curve].

Consider `CCC(=O)N1c2nc(C(C)C)nn2C2(CCCCC2)[C@@H]2CCCC[C@@H]21`, for which, under setting [1], the AC50 is 25.1 µM [falling, single point].

On to `COc1ccc(Cl)cc1NC(=O)C(C)n1nnc2sc3c(c2c1=O)CCCC3` (centres undefined), for which the AC50 under setting [1] is 12.6 µM [falling, partial curve].

Consider `COc1ccccc1C(=O)Nc1cc(-c2cccc(Br)c2)nn1-c1ccccc1`, for which the AC50 under setting [1] was 20 µM [falling, partial curve, poor fit].

With `COc1ccccc1N1CCN(C(c2cc3ccc(C)cc3[nH]c2=O)c2nnnn2C2CCCC2)CC1` (centres undefined), the AC50 under setting [1] is 15.8 µM [falling, partial curve].

For the compound `CCOc1ccc(NC(=O)Cn2nnc(C(=O)OC)c2C(=O)OC)cc1`, the AC50 under setting [1] was 0.2 µM [rising, partial curve, poor fit].

As to `Cc1ccc(C(=O)NCC(=O)OCc2cc(=O)n3nc(C4CCCCC4)sc3n2)cc1`, the AC50 under setting [1] was 3.98 µM [rising, single point].

For `COc1ccc(C(=O)NC2(C(F)(F)F)C(=O)NC(C)=C2C#N)cc1` (centres undefined), the AC50 under setting [1] is 7.94 µM [rising, single point].

For the compound `CCCCSCc1nc2nc(Cl)c(Cl)nc2[nH]1`, the AC50 under setting [1] was 2 µM [falling, partial curve].

For the compound `COc1cc(Br)cc(CN2CCN(C/C=C/c3ccccc3)CC2)c1O`, the AC50 under setting [1] was 12.6 µM [falling, partial curve].

As to `CCC(Oc1ccc(F)cc1)C(=O)Nc1cc(-c2ccc(C)cc2)no1` (centres undefined), the half-maximal activity concentration (AC50) under setting [1] was 25.1 µM [falling, partial curve].

In the case of `COc1cccc(CNC(=O)Nc2cc(C(=O)NCc3cccc(F)c3)ccc2N2CCCC2)c1`, the AC50 under setting [1] was 12.6 µM [falling, partial curve].
